Test results as given in paper PMC7719180.
These are yes or no findings as the source states them, for the method shown. Binding seen in cells or lysates may run through a third protein. Some entries that bind do so weakly or less than the wild type. Sequences can lack the tags named with a protein. Blank lines part the entries; values can stand above or below the binder they belong to.

The chains behind the UniProt entries cited, without tags or fusion partners.
UniProt P14618: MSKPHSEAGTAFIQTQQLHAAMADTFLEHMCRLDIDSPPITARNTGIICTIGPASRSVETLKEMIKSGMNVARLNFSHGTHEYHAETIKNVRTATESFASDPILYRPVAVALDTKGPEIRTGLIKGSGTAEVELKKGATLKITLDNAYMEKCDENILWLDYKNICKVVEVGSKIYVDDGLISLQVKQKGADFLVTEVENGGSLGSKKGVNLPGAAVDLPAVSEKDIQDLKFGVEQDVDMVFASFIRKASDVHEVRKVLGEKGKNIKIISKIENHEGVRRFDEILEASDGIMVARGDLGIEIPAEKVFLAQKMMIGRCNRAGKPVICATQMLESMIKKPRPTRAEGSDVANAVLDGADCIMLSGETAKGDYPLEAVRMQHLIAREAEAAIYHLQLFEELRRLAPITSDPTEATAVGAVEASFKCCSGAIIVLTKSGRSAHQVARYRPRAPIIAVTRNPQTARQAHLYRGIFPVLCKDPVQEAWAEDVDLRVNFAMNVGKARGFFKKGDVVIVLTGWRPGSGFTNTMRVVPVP

Tests used:
[1] = biological target: HA-PKM2 (pyruvate kinase M2), in HEK293T (UniProt P14618); test: co-IP; HEK293T co-transfected with HA- and Flag-tagged proteins, 48 h; lysate with anti-HA beads overnight at 4 °C; western blot with Flag and HA antibodies
[2] = biological target: PKM2 (pyruvate kinase M2), endogenous (human (endogenous in HepG2, SMMC-7721, LO2)) (UniProt P14618); test: proximity ligation; Duolink in situ PLA of HDAC8 and PKM2 in fixed SMMC-7721 and LO2 cells
[3] = biological target: PKM2 (pyruvate kinase M2), endogenous (human (endogenous in HepG2, SMMC-7721, LO2)) (UniProt P14618); test: co-IP; endogenous; HepG2 lysate with antibody against PKM2 and protein A/G agarose overnight at 4 °C; blot with anti-PKM2 and anti-HDAC8
[4] = biological target: HA-PKM2 (pyruvate kinase M2), in HepG2 (UniProt P14618); test: co-IP; HepG2 transfected with HA-PKM2 for 48 h; extracts immunoprecipitated with anti-HA (IgG as control); blot with anti-HDAC8 and HA antibody

binding [1]: binds
B1: Flag-HDAC8 (histone deacetylase 8) (enzyme, UniProt Q9BY41 1-377)
chain: MEEPEEPADSGQSLVPVYIYSPEYVSMCDSLAKIPKRASMVHSLIEAYALHKQMRIVKPKVASMEEMATFHTDAYLQHLQKVSQEGDDDHPDSIEYGLGYDCPATEGIFDYAAAIGGATITAAQCLIDGMCKVAINWSGGWHHAKKDEASGFCYLNDAVLGILRLRRKFERILYVDLDLHHGDGVEDAFSFTSKVMTVSLHKFSPGFFPGTGDVSDVGLGKGRYYSVNVPIQDGIQDEKYYQICESVLKEVYQAFNPKAVVLQLGADTIAGDPMCSFNMTPVGIGKCLKYILQWQLATLILGGGGYNLANTARCWTYLTGVILGKTLSSEIPDHEFFTAYGPDYVLEITPSCRPDRNEPHRIQQILNYIKGNLKHVV

binding [2]: binds
binding [3]: binds
binding [4]: binds
B2: HDAC8 (histone deacetylase 8), endogenous (enzyme, UniProt Q9BY41 1-377)
chain: B1 chain
